# Source: the supplement of paper PMC10849652
# Amino acid sequences for entries named in this document (tags omitted). A change or cut given only in a name is not applied to a line headed by its entry.
# UniProt Q12770: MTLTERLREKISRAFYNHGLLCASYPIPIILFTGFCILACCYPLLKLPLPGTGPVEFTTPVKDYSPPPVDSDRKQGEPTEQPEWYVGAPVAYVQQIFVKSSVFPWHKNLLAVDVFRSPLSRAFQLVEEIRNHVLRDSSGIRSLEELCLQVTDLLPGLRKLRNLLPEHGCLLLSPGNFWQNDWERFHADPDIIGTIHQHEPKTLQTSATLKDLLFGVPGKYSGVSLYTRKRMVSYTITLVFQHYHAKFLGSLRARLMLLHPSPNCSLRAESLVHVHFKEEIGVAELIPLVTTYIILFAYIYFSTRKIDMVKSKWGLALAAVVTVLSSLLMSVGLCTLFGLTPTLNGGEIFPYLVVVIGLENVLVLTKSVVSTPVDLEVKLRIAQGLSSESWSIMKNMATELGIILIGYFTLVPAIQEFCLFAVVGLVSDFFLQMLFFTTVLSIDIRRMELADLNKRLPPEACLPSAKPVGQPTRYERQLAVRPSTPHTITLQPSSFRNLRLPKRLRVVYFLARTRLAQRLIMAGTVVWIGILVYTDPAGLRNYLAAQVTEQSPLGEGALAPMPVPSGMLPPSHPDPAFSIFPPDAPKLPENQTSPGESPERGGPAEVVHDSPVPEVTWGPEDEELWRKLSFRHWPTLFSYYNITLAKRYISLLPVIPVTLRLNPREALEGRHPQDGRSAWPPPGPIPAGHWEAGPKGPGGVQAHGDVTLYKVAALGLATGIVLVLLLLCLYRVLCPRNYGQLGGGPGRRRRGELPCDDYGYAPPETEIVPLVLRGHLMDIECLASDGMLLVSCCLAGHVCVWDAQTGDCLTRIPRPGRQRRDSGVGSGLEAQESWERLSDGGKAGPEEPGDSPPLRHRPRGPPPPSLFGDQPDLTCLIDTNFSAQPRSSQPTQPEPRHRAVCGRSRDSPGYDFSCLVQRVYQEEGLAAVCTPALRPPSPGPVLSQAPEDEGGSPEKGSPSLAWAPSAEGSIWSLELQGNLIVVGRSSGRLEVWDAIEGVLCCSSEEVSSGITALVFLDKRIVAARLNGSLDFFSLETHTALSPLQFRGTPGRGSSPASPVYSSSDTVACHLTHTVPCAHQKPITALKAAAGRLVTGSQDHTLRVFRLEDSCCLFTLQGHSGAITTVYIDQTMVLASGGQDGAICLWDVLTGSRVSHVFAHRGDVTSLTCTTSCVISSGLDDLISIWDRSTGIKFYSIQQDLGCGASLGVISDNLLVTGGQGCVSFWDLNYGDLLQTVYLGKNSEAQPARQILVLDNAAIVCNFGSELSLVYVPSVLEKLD
# UniProt Q9NQC3: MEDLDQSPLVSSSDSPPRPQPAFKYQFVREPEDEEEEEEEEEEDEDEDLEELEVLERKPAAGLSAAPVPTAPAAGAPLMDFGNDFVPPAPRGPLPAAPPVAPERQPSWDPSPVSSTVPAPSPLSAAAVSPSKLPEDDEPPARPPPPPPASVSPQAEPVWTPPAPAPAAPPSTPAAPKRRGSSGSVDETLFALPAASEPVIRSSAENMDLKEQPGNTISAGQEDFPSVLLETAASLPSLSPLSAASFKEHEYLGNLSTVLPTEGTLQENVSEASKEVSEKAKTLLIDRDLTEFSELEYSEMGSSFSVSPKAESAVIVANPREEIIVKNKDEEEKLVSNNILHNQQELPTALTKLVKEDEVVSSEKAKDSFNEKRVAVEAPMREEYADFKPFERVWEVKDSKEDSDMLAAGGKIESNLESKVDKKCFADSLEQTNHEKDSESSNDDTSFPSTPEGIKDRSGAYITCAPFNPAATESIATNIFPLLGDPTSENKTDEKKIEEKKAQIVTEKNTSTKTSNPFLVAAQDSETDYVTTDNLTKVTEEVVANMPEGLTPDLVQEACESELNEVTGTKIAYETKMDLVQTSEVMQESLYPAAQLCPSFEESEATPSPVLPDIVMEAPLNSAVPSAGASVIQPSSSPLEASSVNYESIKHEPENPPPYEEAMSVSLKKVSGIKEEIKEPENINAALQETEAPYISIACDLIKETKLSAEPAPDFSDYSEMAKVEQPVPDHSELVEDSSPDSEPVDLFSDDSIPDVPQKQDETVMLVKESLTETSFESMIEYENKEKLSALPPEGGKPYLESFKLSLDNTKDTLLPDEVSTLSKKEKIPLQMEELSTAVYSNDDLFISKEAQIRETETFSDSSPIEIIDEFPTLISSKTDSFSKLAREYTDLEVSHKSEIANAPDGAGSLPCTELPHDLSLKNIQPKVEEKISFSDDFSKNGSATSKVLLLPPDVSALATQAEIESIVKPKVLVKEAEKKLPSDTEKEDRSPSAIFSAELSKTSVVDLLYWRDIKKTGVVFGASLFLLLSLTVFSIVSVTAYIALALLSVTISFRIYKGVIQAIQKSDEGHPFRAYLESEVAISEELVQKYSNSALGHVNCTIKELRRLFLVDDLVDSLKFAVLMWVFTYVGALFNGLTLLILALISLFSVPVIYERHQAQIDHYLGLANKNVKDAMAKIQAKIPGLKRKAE
# UniProt O95248: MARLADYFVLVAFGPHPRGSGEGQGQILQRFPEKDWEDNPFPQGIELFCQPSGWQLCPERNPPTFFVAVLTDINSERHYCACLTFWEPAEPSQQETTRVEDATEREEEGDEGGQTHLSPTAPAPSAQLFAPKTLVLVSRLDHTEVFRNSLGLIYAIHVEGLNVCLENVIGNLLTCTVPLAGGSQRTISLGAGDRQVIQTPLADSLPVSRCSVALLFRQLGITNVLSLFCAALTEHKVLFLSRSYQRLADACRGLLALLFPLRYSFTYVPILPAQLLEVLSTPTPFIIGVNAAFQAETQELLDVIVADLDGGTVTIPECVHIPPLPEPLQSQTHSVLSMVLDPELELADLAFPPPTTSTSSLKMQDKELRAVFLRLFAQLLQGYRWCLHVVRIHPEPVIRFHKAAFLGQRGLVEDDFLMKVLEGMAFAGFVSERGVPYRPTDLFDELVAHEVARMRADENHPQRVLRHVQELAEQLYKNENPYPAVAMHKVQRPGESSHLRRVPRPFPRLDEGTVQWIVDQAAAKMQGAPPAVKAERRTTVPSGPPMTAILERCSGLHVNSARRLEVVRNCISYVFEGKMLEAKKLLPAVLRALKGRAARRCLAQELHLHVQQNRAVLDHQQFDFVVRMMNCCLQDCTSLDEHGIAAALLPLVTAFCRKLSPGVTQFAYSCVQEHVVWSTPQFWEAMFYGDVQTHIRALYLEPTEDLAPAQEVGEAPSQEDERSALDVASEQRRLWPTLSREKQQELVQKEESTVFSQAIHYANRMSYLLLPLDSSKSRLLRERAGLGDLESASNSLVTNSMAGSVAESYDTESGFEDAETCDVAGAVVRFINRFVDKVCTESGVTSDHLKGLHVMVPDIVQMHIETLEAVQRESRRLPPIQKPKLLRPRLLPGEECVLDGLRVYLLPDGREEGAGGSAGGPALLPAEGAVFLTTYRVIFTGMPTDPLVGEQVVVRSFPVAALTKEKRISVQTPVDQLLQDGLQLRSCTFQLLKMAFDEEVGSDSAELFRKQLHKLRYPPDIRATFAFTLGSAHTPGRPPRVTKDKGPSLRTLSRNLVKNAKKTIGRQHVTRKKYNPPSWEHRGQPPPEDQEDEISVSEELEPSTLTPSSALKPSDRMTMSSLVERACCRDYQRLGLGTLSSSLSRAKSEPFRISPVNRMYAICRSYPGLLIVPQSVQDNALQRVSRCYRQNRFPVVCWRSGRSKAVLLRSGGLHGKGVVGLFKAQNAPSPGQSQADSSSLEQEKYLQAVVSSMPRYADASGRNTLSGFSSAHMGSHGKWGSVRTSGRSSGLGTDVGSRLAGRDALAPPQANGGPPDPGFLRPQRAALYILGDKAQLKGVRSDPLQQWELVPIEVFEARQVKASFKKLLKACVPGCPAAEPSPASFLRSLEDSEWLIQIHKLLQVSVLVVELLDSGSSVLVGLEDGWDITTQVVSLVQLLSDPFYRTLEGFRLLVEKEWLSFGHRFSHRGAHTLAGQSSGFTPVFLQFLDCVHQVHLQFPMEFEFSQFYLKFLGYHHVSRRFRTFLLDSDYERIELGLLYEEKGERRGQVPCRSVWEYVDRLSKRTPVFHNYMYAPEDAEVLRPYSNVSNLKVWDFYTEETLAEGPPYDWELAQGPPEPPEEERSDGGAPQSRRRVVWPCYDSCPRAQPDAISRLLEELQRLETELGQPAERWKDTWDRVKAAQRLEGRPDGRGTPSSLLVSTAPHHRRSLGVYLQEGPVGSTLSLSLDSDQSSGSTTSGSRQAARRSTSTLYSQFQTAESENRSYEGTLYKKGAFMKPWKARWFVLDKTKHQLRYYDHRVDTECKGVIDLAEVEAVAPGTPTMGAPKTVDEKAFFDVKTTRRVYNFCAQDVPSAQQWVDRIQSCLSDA
# UniProt Q99584: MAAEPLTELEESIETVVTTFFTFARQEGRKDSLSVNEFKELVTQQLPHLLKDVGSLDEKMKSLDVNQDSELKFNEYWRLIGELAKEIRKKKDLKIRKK
# UniProt O15126: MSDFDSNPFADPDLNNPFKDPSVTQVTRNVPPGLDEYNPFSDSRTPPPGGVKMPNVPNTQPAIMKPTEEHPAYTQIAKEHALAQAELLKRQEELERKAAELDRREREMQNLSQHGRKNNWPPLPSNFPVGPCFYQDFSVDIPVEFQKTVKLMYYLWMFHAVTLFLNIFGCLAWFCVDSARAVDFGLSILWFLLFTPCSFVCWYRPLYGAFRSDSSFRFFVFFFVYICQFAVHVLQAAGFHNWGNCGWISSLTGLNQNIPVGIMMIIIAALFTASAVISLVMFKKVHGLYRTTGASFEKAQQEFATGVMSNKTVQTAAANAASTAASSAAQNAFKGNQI
# UniProt Q9Y6U3: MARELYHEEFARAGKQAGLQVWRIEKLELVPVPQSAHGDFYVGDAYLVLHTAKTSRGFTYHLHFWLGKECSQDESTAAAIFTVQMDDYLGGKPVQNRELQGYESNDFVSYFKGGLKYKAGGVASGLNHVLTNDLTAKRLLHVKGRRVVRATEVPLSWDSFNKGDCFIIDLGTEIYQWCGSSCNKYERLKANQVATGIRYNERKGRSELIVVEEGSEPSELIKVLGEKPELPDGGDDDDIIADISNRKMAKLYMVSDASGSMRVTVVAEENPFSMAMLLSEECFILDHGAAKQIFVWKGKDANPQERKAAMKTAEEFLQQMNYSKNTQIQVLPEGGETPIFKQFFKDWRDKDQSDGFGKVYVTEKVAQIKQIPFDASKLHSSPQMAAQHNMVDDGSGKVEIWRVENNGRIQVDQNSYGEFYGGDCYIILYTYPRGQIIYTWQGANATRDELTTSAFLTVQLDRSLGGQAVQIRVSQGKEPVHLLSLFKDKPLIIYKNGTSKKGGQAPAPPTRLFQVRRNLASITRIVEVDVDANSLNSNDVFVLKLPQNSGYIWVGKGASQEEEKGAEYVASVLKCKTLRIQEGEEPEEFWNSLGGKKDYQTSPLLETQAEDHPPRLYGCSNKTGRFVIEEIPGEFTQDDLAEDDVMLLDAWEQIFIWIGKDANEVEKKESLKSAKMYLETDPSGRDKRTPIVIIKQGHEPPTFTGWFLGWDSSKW
# UniProt O00442: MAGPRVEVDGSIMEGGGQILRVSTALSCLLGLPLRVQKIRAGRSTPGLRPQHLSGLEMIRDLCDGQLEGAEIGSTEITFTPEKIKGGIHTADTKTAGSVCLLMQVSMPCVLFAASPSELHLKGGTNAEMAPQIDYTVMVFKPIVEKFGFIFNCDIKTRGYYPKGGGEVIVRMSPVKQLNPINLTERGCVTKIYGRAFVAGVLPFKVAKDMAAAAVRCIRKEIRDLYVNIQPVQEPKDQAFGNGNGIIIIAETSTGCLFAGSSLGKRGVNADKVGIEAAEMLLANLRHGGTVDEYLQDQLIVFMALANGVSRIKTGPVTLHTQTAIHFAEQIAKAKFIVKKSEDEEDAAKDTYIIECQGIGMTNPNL
# UniProt P29034: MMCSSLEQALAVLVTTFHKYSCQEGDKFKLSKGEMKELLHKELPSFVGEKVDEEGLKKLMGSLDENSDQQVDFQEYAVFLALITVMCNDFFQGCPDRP
# The other results are listed elsewhere or left out.
# Compound: c1cn2cc(-c3ccc4cn[nH]c4c3)nc(Nc3ccc(N4CCOCC4)cc3)c2n1 [entospletinib]
# Assay: log2 fold change, soluble protein after heating vs DMSO (PISA); higher = thermal stabilisation; K562 cells, 10 uM, 30 min; active = over 0.2 and 3.5 SD of the protein, either way, in both replicates (recomputed)
# Summary of the method: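 K562 cells at 2×10^6 cells/mL were treated with 10 μM compound for 30 min. Aliquots were heated for 3 min across 48°C-58°C, pooled, and extracted in PBS with 0.5% NP-40 at 4°C; soluble protein was the supernatant after 21,000xg for 90 min. Soluble protein was quantified by TMTpro 16plex LC-MS/MS with channel sums equalised, and reported as log2 fold change in thermal stability against DMSO controls, with values from duplicates.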
row,Target,log2 fold change
1,SCAP (UniProt Q12770),inactive: -0.018
2,RTN4 (UniProt Q9NQC3),inactive: -0.047
3,SBF1 isoform 4 (UniProt O95248),inactive: 0.121
4,S100A13 (UniProt Q99584),inactive: 0.019
5,SCAMP1 (UniProt O15126),inactive: 0.02
6,SCIN (UniProt Q9Y6U3),inactive: 0.04
7,RTCA (UniProt O00442),inactive: 0.023
8,S100A2 (UniProt P29034),inactive: 0
